# In the supplement of paper PMC8728848:
# The list shows a part of the results.
# Key:
# Assay in all cases: glycan array binding signal (z-score within array); higher = stronger binding
# Details in all cases: glycan notation: IUPAC condensed, linker removed
# [1] = molecular target: Fuc(a1-2)Gal
# In short: (§1)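 From the Consortium for Functional Glycomics database, 3228 arrays were curated, keeping only those whose protein sequence was available. Binding is given as a within-array Z-score averaged across arrays sharing a protein sequence and across linkers. Negative Z-scores can be read as non-binding.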
# [2] = molecular target: Fuc(a1-2)Gal(b1-3)GalNAc
# In short: as §1
# [3] = molecular target: Fuc(a1-2)Gal(b1-3)GalNAc(a1-3)[Fuc(a1-2)]Gal(b1-4)Glc
# In short: as §1
# [4] = molecular target: Fuc(a1-2)Gal(b1-3)GalNAc(a1-3)[Fuc(a1-2)]Gal(b1-4)GlcNAc
# In short: as §1
# [5] = molecular target: Fuc(a1-2)Gal(b1-3)GalNAc(b1-3)Gal
# In short: as §1
# [6] = molecular target: Fuc(a1-2)Gal(b1-3)GalNAc(b1-3)Gal(a1-4)Gal(b1-4)Glc
# In short: as §1
# [7] = molecular target: Fuc(a1-2)Gal(b1-3)GalNAc(b1-4)[Neu5Ac(a2-3)]Gal(b1-4)Glc
# In short: as §1
# [8] = molecular target: Fuc(a1-2)Gal(b1-3)GlcNAc
# In short: as §1
# [9] = molecular target: Fuc(a1-2)Gal(b1-3)GlcNAc(b1-2)Man(a1-3)[Fuc(a1-2)Gal(b1-3)GlcNAc(b1-2)Man(a1-6)]Man(b1-4)GlcNAc(b1-4)GlcNAc
# In short: as §1
# [10] = molecular target: Fuc(a1-2)Gal(b1-3)GlcNAc(b1-2)Man(a1-3)[Fuc(a1-2)Gal(b1-3)GlcNAc(b1-2)Man(a1-6)]Man(b1-4)GlcNAc(b1-4)[Fuc(a1-6)]GlcNAc
# In short: as §1
# [11] = molecular target: Fuc(a1-2)Gal(b1-3)GlcNAc(b1-3)Gal(b1-4)Glc
# In short: as §1
# [12] = molecular target: Fuc(a1-2)Gal(b1-3)GlcNAc(b1-3)GalNAc
# In short: as §1
# [13] = molecular target: Fuc(a1-2)Gal(b1-3)GlcNAc(b1-3)[Fuc(a1-2)Gal(b1-3)GlcNAc(b1-6)]GalNAc
# In short: as §1
# [14] = molecular target: Fuc(a1-2)Gal(b1-3)GlcNAc(b1-3)[Gal(b1-4)GlcNAc(b1-6)]Gal(b1-4)Glc
# In short: as §1
# [15] = molecular target: Fuc(a1-2)Gal(b1-3)GlcNAc(b1-3)[Neu5Ac(a2-6)Gal(b1-4)GlcNAc(b1-6)]Gal(b1-4)Glc
# In short: as §1
# [16] = molecular target: Fuc(a1-2)Gal(b1-3)GlcNAc6S
# In short: as §1
# [17] = molecular target: Fuc(a1-2)Gal(b1-3)[Fuc(a1-4)]GlcNAc
# In short: as §1
# [18] = molecular target: Fuc(a1-2)Gal(b1-3)[Fuc(a1-4)]GlcNAc(b1-2)Man(a1-3)[Fuc(a1-2)Gal(b1-3)[Fuc(a1-4)]GlcNAc(b1-2)Man(a1-3)]Man(b1-4)GlcNAc(b1-4)GlcNAc
# In short: as §1
# [19] = molecular target: Fuc(a1-2)Gal(b1-3)[Fuc(a1-4)]GlcNAc(b1-2)Man(a1-3)[Fuc(a1-2)Gal(b1-3)[Fuc(a1-4)]GlcNAc(b1-2)Man(a1-6)]Man(b1-4)GlcNAc(b1-4)[Fuc(a1-6)]GlcNAc(b1-4)[Fuc(a1-6)]GlcNAc
# In short: as §1
# [20] = molecular target: Fuc(a1-2)Gal(b1-3)[Fuc(a1-4)]GlcNAc(b1-3)[Fuc(a1-3)[Gal(b1-4)]GlcNAc(b1-6)]Gal(b1-4)Glc
# In short: as §1
# [21] = molecular target: Fuc(a1-2)Gal(b1-3)[Fuc(a1-4)]GlcNAc(b1-3)[Gal(b1-4)GlcNAc(b1-6)]Gal(b1-4)Glc
# In short: as §1
# [22] = molecular target: Fuc(a1-2)Gal(b1-4)Fuc(a1-3)]GlcNAc(b1-2)Man(a1-3)[Fuc(a1-2)Gal(b1-4)[Fuc(a1-3)]GlcNAc(b1-2)Man(a1-6)]Man(b1-4)GlcNAc(b1-4)GlcNAc
# In short: as §1
# [23] = molecular target: Fuc(a1-2)Gal(b1-4)Glc
# In short: as §1
# [24] = molecular target: Fuc(a1-2)Gal(b1-4)Glc6S
# In short: as §1
# [25] = molecular target: Fuc(a1-2)Gal(b1-4)GlcNAc
# In short: as §1
# [26] = molecular target: Fuc(a1-2)Gal(b1-4)GlcNAc(b1-2)Man
# In short: as §1
# [27] = molecular target: Fuc(a1-2)Gal(b1-4)GlcNAc(b1-2)Man(a1-3)[Fuc(a1-2)Gal(b1-4)GlcNAc(b1-2)Man(a1-6)]Man(b1-4)GlcNAc(b1-4)GlcNAc
# In short: as §1
# [28] = molecular target: Fuc(a1-2)Gal(b1-4)GlcNAc(b1-2)Man(a1-3)[Fuc(a1-2)Gal(b1-4)GlcNAc(b1-2)Man(a1-6)]Man(b1-4)GlcNAc(b1-4)[Fuc(a1-6)]GlcNAc
# In short: as §1
# [29] = molecular target: Fuc(a1-2)Gal(b1-4)GlcNAc(b1-2)[Fuc(a1-2)Gal(b1-4)GlcNAc(b1-4)]Man(a1-3)[Fuc(a1-2)Gal(b1-4)GlcNAc(b1-2)Man(a1-6)]Man(b1-4)GlcNAc(b1-4)GlcNAc
# In short: as §1
# [30] = molecular target: Fuc(a1-2)Gal(b1-4)GlcNAc(b1-3)Gal(b1-4)GlcNAc
# In short: as §1
binder,measurement,setting,value
"AT1G80310(18) (Arabidopsis thaliana), Q0WP36 (protein) METTTTPLLPGDRSRCGWLRRRLRLKNPLSSELSGAVGDLGTFIPIVLTLTLVSNLDLSTTLIFTGFYNIATGLLFDIPMPVQPMKSIAAVAVSESPHLTPSQIAAAGASTAATLLLLGATGAMSFLYNIIPLPVVRGVQLSQGLQFAFTAIKYVRFNYDTATLKPSSSPRIWLGLDGLILALAALLFIILSTGSGNDREAEDGDLAETSSNESQSRRRRLRLLSSIPSALIVFALGLVLCFIRDPSIFKDLKFGPSKFHILRISWDDWKIGFLRAAIPQIPLSVLNSVIAVCKLSNDLFDKELSATTVSISVGVMNLIGCWFGAMPVCHGAGGLAGQYRFGARSGLSVIFLGIGKLIVGLVFGNSFVRILSQFPIGILGVLLLFAGIELAMASKDMNSKEDSFIMLVCAAVSMTGSSAALGFGCGVVLYLLLKLRTLDCSSVTLFSRSSDESQVDSEAAPRDV",glycan array binding signal (z-score),[1],1.66
same,glycan array binding signal (z-score),[2],-0.601
same,glycan array binding signal (z-score),[3],1.38
same,glycan array binding signal (z-score),[4],-0.505
same,glycan array binding signal (z-score),[5],0.503
same,glycan array binding signal (z-score),[6],-0.413
same,glycan array binding signal (z-score),[7],-0.845
same,glycan array binding signal (z-score),[8],0.429
same,glycan array binding signal (z-score),[9],-1.03
same,glycan array binding signal (z-score),[10],0.177
same,glycan array binding signal (z-score),[11],-0.053
same,glycan array binding signal (z-score),[12],-0.358
same,glycan array binding signal (z-score),[13],-0.893
same,glycan array binding signal (z-score),[14],2.42
same,glycan array binding signal (z-score),[15],-0.892
same,glycan array binding signal (z-score),[16],-0.258
same,glycan array binding signal (z-score),[17],-0.61
same,glycan array binding signal (z-score),[18],-0.097
same,glycan array binding signal (z-score),[19],1.67
same,glycan array binding signal (z-score),[20],0.22
same,glycan array binding signal (z-score),[21],-0.71
same,glycan array binding signal (z-score),[22],4.04
same,glycan array binding signal (z-score),[23],0.358
same,glycan array binding signal (z-score),[24],-0.979
same,glycan array binding signal (z-score),[25],-0.288
same,glycan array binding signal (z-score),[26],1.59
same,glycan array binding signal (z-score),[27],3.83
same,glycan array binding signal (z-score),[28],2.34
same,glycan array binding signal (z-score),[29],1.65
same,glycan array binding signal (z-score),[30],0.099

# A second format for part of the listing above.
binder | measurement | setting | value
AT1G80310(18) (Arabidopsis thaliana), Q0WP36 (protein) METTTTPLLPGDRSRCGWLRRRLRLKNPLSSELSGAVGDLGTFIPIVLTLTLVSNLDLSTTLIFTGFYNIATGLLFDIPMPVQPMKSIAAVAVSESPHLTPSQIAAAGASTAATLLLLGATGAMSFLYNIIPLPVVRGVQLSQGLQFAFTAIKYVRFNYDTATLKPSSSPRIWLGLDGLILALAALLFIILSTGSGNDREAEDGDLAETSSNESQSRRRRLRLLSSIPSALIVFALGLVLCFIRDPSIFKDLKFGPSKFHILRISWDDWKIGFLRAAIPQIPLSVLNSVIAVCKLSNDLFDKELSATTVSISVGVMNLIGCWFGAMPVCHGAGGLAGQYRFGARSGLSVIFLGIGKLIVGLVFGNSFVRILSQFPIGILGVLLLFAGIELAMASKDMNSKEDSFIMLVCAAVSMTGSSAALGFGCGVVLYLLLKLRTLDCSSVTLFSRSSDESQVDSEAAPRDV | glycan array binding signal (z-score) | [1] | 1.66
same | glycan array binding signal (z-score) | [23] | 0.358
